PubChem BioAssay AID1224828 | NIAID | 2016
The whole screen tested about 17,000 reagents; shown is a part drawn at random. In the full data, 762 (4.5%) got an active call. 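Active calls include both raised and lowered p65 entry, mostly lowered; wells with fewer than 50 cells lack a z-score.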 Raw values vary from plate to plate and are shown uncorrected. Reagent sequences are not shown.

Purpose: 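Find genes required for NF-kappaB p65 moving into the nucleus after LPS in mouse macrophages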 (primary screen)
Cell system: mouse RAW264.7 G9 macrophage reporter cells (GFP-p65, Tnf promoter-mCherry)
Reagents: siRNA pool against mouse genes, 100 nM
Duration: 2 days siRNA transfection, then 40 min LPS before fixation
Challenge: LPS (Salmonella minnesota R595) at 10 ng/ml
Detection: 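Imaged p65 nuclear translocation ratio, normalised to the plate median, converted to robust z-scores and averaged across two replicates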
Scale: p65 translocation robust z-score: higher = more nuclear NF-kappaB p65 after LPS than the plate median; nuclear/cytoplasmic p65 ratio: higher = more nuclear NF-kappaB p65
Rule for the call: 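Active if robust z is above 3.3 (negative regulators) or below -1.56, the Tlr4 control median (positive regulators); activity score 50 or more; control wells not called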
Calls: active = hit (p65 shift raised or lowered); inactive = no clear change

Target gene	p65 translocation robust z-score	nuclear/cytoplasmic p65 ratio, rep 1	nuclear/cytoplasmic p65 ratio, rep 2	low cell count flag	call
Aknaos (GeneID 66783)		1.1	1.16	fewer than 50 cells per well; well left out of scoring	inactive
Rasgrp1 (GeneID 19419)		1.64	1.35	fewer than 50 cells per well; well left out of scoring	inactive
Isyna1 (GeneID 71780)	0.29	1.69	1.38	enough cells to score	inactive
Rspo2 (GeneID 239405)		1.09	1.24	fewer than 50 cells per well; well left out of scoring	inactive
4933414I15Rik (GeneID 74408)		1.3	1.35	fewer than 50 cells per well; well left out of scoring	inactive
Tead4 (GeneID 21679)		1.31	1.17	fewer than 50 cells per well; well left out of scoring	inactive
N4bp1 (GeneID 80750)	-0.55	1.48	1.77	enough cells to score	inactive
Aar2 (GeneID 68295)	0.12	1.48	1.54	enough cells to score	inactive
Rab19 (GeneID 19331)	1.27	1.54	1.2	enough cells to score	inactive
Pik3ca (GeneID 18706)	-0.7	1.57	1.3	enough cells to score	inactive
Tpk1 (GeneID 29807)		1.73	1.37	fewer than 50 cells per well; well left out of scoring	inactive
Erlin2 (GeneID 244373)	-1.38	1.29	1.7	enough cells to score	inactive
Chodl (GeneID 246048)	-0.64	1.5	1.68	enough cells to score	inactive
Myoz3 (GeneID 170947)	0.98	1.92	1.76	enough cells to score	inactive
Thoc3 (GeneID 73666)	-1.32	1.13	1.1	enough cells to score	inactive
Chsy3 (GeneID 78923)		1.7	1.13	fewer than 50 cells per well; well left out of scoring	inactive
Exoc4 (GeneID 20336)		1.19	1.04	fewer than 50 cells per well; well left out of scoring	inactive
Gclm (GeneID 14630)	-3.05	1.1	1.09	enough cells to score	active
Csf1 (GeneID 12977)	-2.27	1.16	1.09	enough cells to score	active
Sox30 (GeneID 214105)	-0.23	1.4	1.2	enough cells to score	inactive
Or5j3 (GeneID 259012)	-0.22	1.5	1.65	enough cells to score	inactive
St14 (GeneID 19143)		1.41	1.36	fewer than 50 cells per well; well left out of scoring	inactive
Fxyd3 (GeneID 17178)	1.21	1.78	1.62	enough cells to score	inactive
Pcdhgc4 (GeneID 93707)	-1.83	1.17	1.05	enough cells to score	active
9230109A22Rik (GeneID 223413)	1.63	1.57	1.85	enough cells to score	inactive
Sash1 (GeneID 70097)	0.19	1.42	1.49	enough cells to score	inactive
Efcab7 (GeneID 230500)	-1.06	1.48	1.6	enough cells to score	inactive
Clic5 (GeneID 224796)	-0.85	1.37	1.26	enough cells to score	inactive
Pawr (GeneID 114774)	-1.91	1.23	1.12	enough cells to score	active
Grid2ip (GeneID 170935)	-0.27	1.69	1.52	enough cells to score	inactive
Tpbg (GeneID 21983)	0.03	1.57	1.48	enough cells to score	inactive
Srp14 (GeneID 20813)	-0.25	1.4	1.2	enough cells to score	inactive
Fkbp1a (GeneID 14225)	-0.47	1.31	1.37	enough cells to score	inactive
Mypop (GeneID 232934)		1.18	1.16	fewer than 50 cells per well; well left out of scoring	inactive
Pstk (GeneID 214580)		1.18	1.25	fewer than 50 cells per well; well left out of scoring	inactive
Defa20 (GeneID 68009)		1.63	1.25	fewer than 50 cells per well; well left out of scoring	inactive
St6galnac3 (GeneID 20447)	1.77	1.15	1.46	enough cells to score	inactive
Mfge8 (GeneID 17304)	-0.22	1.74	1.47	enough cells to score	inactive
Xdh (GeneID 22436)	-0.57	1.49	1.37	enough cells to score	inactive
Wbp4 (GeneID 22380)		1.69	1.38	fewer than 50 cells per well; well left out of scoring	inactive

4 consecutive reagents from above, quoted:
Target gene	p65 translocation robust z-score	nuclear/cytoplasmic p65 ratio, rep 1	nuclear/cytoplasmic p65 ratio, rep 2	low cell count flag	call
Pstk (GeneID 214580)		1.18	1.25	fewer than 50 cells per well; well left out of scoring	inactive
Defa20 (GeneID 68009)		1.63	1.25	fewer than 50 cells per well; well left out of scoring	inactive
St6galnac3 (GeneID 20447)	1.77	1.15	1.46	enough cells to score	inactive
Mfge8 (GeneID 17304)	-0.22	1.74	1.47	enough cells to score	inactive
